Measurements from PubChem BioAssay AID493014 (National Center for Advancing Translational Sciences (NCATS), 2011).
The list shows a part of the results. The main result of the screen is listed elsewhere. These columns were measured beside it and carry no call. Compounds called inactive in the main read-out are mostly missing here. Words in brackets tell the shape of the fitted curve; partial curves, single points and poor fits give uncertain potencies.

Assay: qHTS Assay to Find Inhibitors of Chronic Active B-Cell Receptor Signaling
Details: ABC-DLBCL IkBa-CBG/CBR reporter, luminescence ratio (green luciferase fused to IkBa over red control in TMD8 lymphoma cells), 4 h
How it was run: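 TMD8 ABC-DLBCL cells carrying doxycycline-inducible green luciferase fused to IkappaBalpha plus unfused red luciferase were exposed to compounds (up to 46 uM) for 4 hrs at 37C. Activity came from the overlap-corrected green/red luminescence ratio.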

[1] = measured here: CBR red luminescence, cell number
[2] = measured here: IkBa-CBG green luminescence

CCOC(=O)c1c(C)[nH]c(C)c1C(=O)COC(=O)/C=C/c1ccccc1[N+](=O)[O-]
AC50 [1]: 11.6 µM [rising, partial curve, poor fit]

CCOC(CNC(=O)Cn1nc(Cc2ccncc2)c2ccccc2c1=O)OCC
AC50 [1]: 2.51 µM [rising, full curve, poor fit]

CCOc1ccc(C(C)=O)cc1CSc1nnc(N)s1
AC50 [1]: 31.6 µM [rising, single point]

O=C1COc2ccc(C(=O)COC(=O)c3cc(S(=O)(=O)NCc4ccccc4)ccc3O)cc2N1
AC50 [1]: 5.62 µM [rising, partial curve, poor fit]

NC(=O)CSc1nc2sc3c(c2c2ncnn12)CCCC3
AC50 [1]: 20 µM [rising, partial curve, poor fit]

Cc1sc2c(c1C)CN(C(C)(C)C)CN2C(=O)c1ccccc1
AC50 [1]: 3.26 µM [falling, partial curve, poor fit]

Cc1cc(NC(=O)CCCS(=O)(=O)c2nc(-c3cccs3)cc(C(F)(F)F)n2)no1
AC50 [1]: 7.08 µM [falling, partial curve]

Cc1ccc(C(=O)N2CCCC(C(=O)c3cc(F)ccc3F)C2)s1 (stereo not given)
AC50 [1]: 8.91 µM [rising, partial curve, poor fit]

COc1ccc(N=Nc2c(N)n[nH]c2N)cc1
AC50 [1]: 6.31 µM [falling, single point]

Cn1cccc1/C=C(/C#N)c1ccc(F)cc1
AC50 [1]: 2.82 µM [rising, full curve, poor fit]

CC(NCc1ccc2c(c1)OCO2)C(=O)NC1CCCc2ccccc21 (stereo not given)
AC50 [1]: 0.116 µM [falling, full curve, poor fit]

Fc1ccc(-c2csc(-c3cccnc3)n2)cc1F
AC50 [1]: 0.891 µM [rising, full curve, poor fit]

O=C(/C=C/NNC(=O)c1cccc(Br)c1)c1cccc(Br)c1
AC50 [1]: 2.91 µM [falling, full curve]

CN(C)/C=C1\N=C(c2ccc(Cl)cc2Cl)OC1=O
AC50 [1]: 4.11 µM [rising, single point]

CC(=O)CSc1nnc(-c2ccc3c(c2)OCO3)o1
AC50 [1]: 20.6 µM [falling, partial curve]

Cc1ccc(OCc2cc(C(=O)NC3CCc4ccccc43)no2)cn1 (stereo not given)
AC50 [1]: 7.94 µM [falling, partial curve, poor fit]

CC1CCN(C(=O)c2[nH]cnc2C(=O)N[C@@H](C)c2ccccc2)CC1
AC50 [1]: 5.8 µM [falling, partial curve, poor fit]

COc1ccc(Cl)cc1C(=O)Nc1ccc(NC(=O)C(C)C)cc1
AC50 [1]: 0.126 µM [rising, full curve, poor fit]

CCc1ccc(S(=O)(=O)Nc2cc(SCC(=O)O)c(O)c3ccccc23)cc1
AC50 [1]: 14.1 µM [falling, single point]

Cc1occc1-c1nnc(SCC(=O)NCCc2ccccc2)o1
AC50 [1]: 25.1 µM [rising, single point]

CN(C)CCN(C(=O)c1cccs1)c1nc2cc3c(cc2s1)OCCO3
AC50 [1]: 39.8 µM [falling, partial curve, poor fit]

Cc1nc2c(Br)c3nc(C(F)(F)F)[nH]c3c(Br)c2[nH]1
AC50 [1]: 6.31 µM [rising, single point]

CCOC(=O)c1ccc(N2CCN(c3cc(C)ccc3C)CC2)c(NC(=O)Nc2ccc(Cl)cc2)c1
AC50 [1]: 6.31 µM [rising, partial curve, poor fit]

CCOc1ccc2[nH]c(C(=O)N/N=C/c3cc(OC)c(OC)c(OC)c3)cc2c1
AC50 [1]: 5.62 µM [falling, single point]

CC1=NN(c2ccc(C(=O)O)cc2)C(=O)/C1=C/c1ccc(-c2ccccc2F)o1
AC50 [1]: 3.16 µM [falling, full curve]

O=C(CNC(=O)c1cccs1)N/N=C/c1ccccc1[N+](=O)[O-]
AC50 [1]: 7.94 µM [falling, partial curve]

COCCCNC(=O)CC(=O)N/N=C\c1ccc(SC)cc1
AC50 [2]: 35.5 µM [falling, single point]

CC(Cn1cncn1)C(=O)N1CCN(S(=O)(=O)c2ccc(Cl)cc2)CC1 (stereo not given)
AC50 [1]: 3.55 µM [falling, partial curve, poor fit]

CCC(COC(C)=O)Nc1nc2c([nH]1)c(=O)n(C)c(=O)n2C (stereo not given)
AC50 [1]: 3.98 µM [falling, full curve, poor fit]

Cc1cccc(NC(=O)c2ccccc2OCC(=O)N2CCCC2)c1C
AC50 [1]: 10 µM [rising, partial curve]

CCC(CC)C(=O)c1c[nH]c(C(=O)OC)c1
AC50 [1]: 7.94 µM [rising, partial curve]

COc1cc(SC)ccc1C(=O)NCCc1c[nH]c2ccccc12
AC50 [1]: 10 µM [falling, partial curve]

O=C(NCc1ccco1)c1sc2cc(Cl)ccc2c1Cl
AC50 [1]: 1.3 µM [rising, full curve, poor fit]

FC(F)(F)c1cccnc1Oc1ccc(C2=NCCS2)cc1
AC50 [1]: 35.5 µM [rising, single point]

COCCNS(=O)(=O)c1cc(OC)c(C)cc1C
AC50 [1]: 2.51 µM [rising, partial curve]

Cc1ccc2cc(COC(=O)c3ccco3)c(=O)[nH]c2c1
AC50 [1]: 1.64 µM [falling, partial curve, poor fit]

CC(C)Cn1c(N)c(C(=O)COC(=O)c2ccc3c(c2)OCCO3)c(=O)n(C)c1=O
AC50 [1]: 0.58 µM [rising, partial curve, poor fit]

O=C(O)c1cccc(CSc2ncccn2)c1
AC50 [1]: 29.1 µM [falling, single point]

O=C(COC(=O)c1cc(=O)[nH]c(=O)[nH]1)Nc1cccc(S(=O)(=O)N2CCOCC2)c1
AC50 [1]: 6.31 µM [rising, single point]

O=C(O)CCn1cc(/C=C2/NC(=S)N(c3ccccc3)C2=O)c(-c2ccccc2)n1
AC50 [1]: 18.4 µM [rising, partial curve, poor fit]

CN(C)c1ccc(S(=O)(=O)NCC(=O)NCCC2=CCCCC2)cc1[N+](=O)[O-]
AC50 [1]: 1.03 µM [rising, full curve, poor fit]

COc1cc(C(=O)Oc2cccc(/C=N/NC(=O)c3cc(C)[nH]n3)c2)cc(OC)c1OC
AC50 [1]: 14.1 µM [falling, partial curve]

CCOC(=O)c1sc2nc(N3CCOCC3)c3c(c2c1N)CC(C)(C)N(C)C3
AC50 [1]: 0.501 µM [rising, full curve, poor fit]

CC(C)c1ccc(/C=C2\SC(N3CCCC3)=NC2=O)cc1
AC50 [1]: 20.6 µM [rising, partial curve, poor fit]

Cc1cccc(C)c1OC(=O)CSc1nnc(-c2ccccc2O)o1
AC50 [1]: 3.26 µM [rising, full curve]

Cc1cccc(NC(=O)CN2CCN(C(=O)c3cnn(Cc4ccccc4)c3)CC2)c1C
AC50 [1]: 2.91 µM [rising, partial curve, poor fit]

COc1ccc(C(=O)c2cn[nH]c2-c2cc(C)ccc2O)cc1
AC50 [1]: 3.98 µM [falling, single point]

CCOC(=O)c1ccc(N2NC(=O)/C(=C/c3ccc(OC(=O)c4ccco4)c(OC)c3)C2=O)cc1
AC50 [1]: 2.59 µM [falling, partial curve, poor fit]

O=C1c2oc3ccc(Cl)cc3c(=O)c2C(c2ccccn2)N1CCCN1CCOCC1 (stereo not given)
AC50 [1]: 32.6 µM [rising, single point]

CCN(Cc1nc2cc(Cl)ccc2c(=O)[nH]1)C(=O)c1cccc(OCc2c(C)noc2C)c1
AC50 [1]: 23.1 µM [falling, single point]

COC(=O)c1cc(NC(=O)CN(c2ccc(OC)cc2)S(=O)(=O)c2ccc(F)cc2)ccc1Cl
AC50 [1]: 5.8 µM [falling, full curve] | AC50 [2]: 32.6 µM [rising, partial curve, poor fit]

CCn1c(O)c(C=NCc2cccs2)c(=O)n(CC)c1=S
AC50 [1]: 4.11 µM [falling, full curve, poor fit]

CCN(CC)S(=O)(=O)c1ccc(C)c(NC(=O)CSc2ncc(C(F)(F)F)cc2Cl)c1
AC50 [1]: 29.1 µM [rising, single point]

Nc1ccc(C(=O)N/N=C/c2cccc(Oc3ccccc3)c2)cc1
AC50 [1]: 20 µM [falling, partial curve, poor fit]

CC(=O)N1CCN=C1SCc1cccc(C)c1
AC50 [1]: 35.5 µM [rising, single point]

CS(=O)(=O)c1ccc(Cl)c(NC(=O)c2cccc(-n3cnnn3)c2)c1
AC50 [1]: 0.0411 µM [rising, partial curve, poor fit]

COc1ccccc1NC(=O)Nc1cc(F)ccc1F
AC50 [1]: 1 µM [rising, full curve, poor fit]

Cc1[nH]c2ccccc2c1C(=O)C(=O)N(C)C1CCCCC1
AC50 [1]: 10 µM [rising, partial curve, poor fit]

O=C(/C=C/Nc1ccccc1O)c1ccco1
AC50 [1]: 11.2 µM [falling, partial curve]

O=C(NCc1ccccc1)C1CCCN1C(=O)Nc1ccccc1[N+](=O)[O-] (stereo not given)
AC50 [1]: 35.5 µM [rising, single point]

CCCN(CCC)c1nc(-c2ccccn2)nc2ccccc12
AC50 [1]: 35.5 µM [falling, single point]

Cc1nc2cc(NC(=O)NCc3ccco3)ccc2o1
AC50 [1]: 18.4 µM [falling, single point]

CN(CC(=O)Nc1c(Cl)cccc1Cl)C(=O)c1ccc(-n2cncn2)c([N+](=O)[O-])c1
AC50 [1]: 14.6 µM [falling, partial curve, poor fit]

Cc1ccc(S(=O)(=O)NC(CC(C)C)C(=O)N2CCN(C/C=C/c3ccccc3)CC2)cc1 (stereo not given)
AC50 [1]: 18.4 µM [falling, single point]
